# Laboratory results taken from the supplement of paper PMC8728848.
# This is one part of the list.
# B1: PX9961Q-bfa-504-27-504 (Bacteroides fragilis) (protein)
# chain: NDWLDRKPADGIPSEDAITNYNDALTARTGMYDGIQGNSNATSYYGARMFYYGDVRADDMQARTQGMRSSSCYEMLYTVDDAPNMWNIPYNVIRRANRLIEAINEKKVTDATEAQIGKIYSEALVVRALVHFDLVRIYGMPYTADNGASLGVPVIVKPLERNDLPSRNTVAEVYTQVITDLTDAINSGYLAKDQTPGYINEWAAKALLTRVYLTKGDNENALKVAEDIITNSPYKLWTNEEYVNAWYKSNGAHTNEMIFEVVNASNDDWTDRNGIAYLLNENGYADAIVTKSFMNMLSQDPKDVRIGMVLPAQYDKDLQEEYGDAKIFINKFPADKDDVGEMRLNNLPLLRLSEVYLSAAEAAAKLGGHQDKAAKYLNEIVQRANPEAKAISEADATVERIILERRKEMIGEGQRYFDALRNNETIVRYKDEGDKGYHYSLIKESQSFDRTYFRAILPIPVDETNVNPNLRAQQNPGY
# Assays:
# Test in all cases: glycan array binding signal (z-score within array); higher = stronger binding
# Settings in all cases: glycan notation: IUPAC condensed, linker removed
# [1] = target: Neu5Ac(a2-6)GlcNAc(b1-4)GlcNAc(b1-4)GlcNAc
# How it was run: (§1)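 Glycan array data came from 3228 arrays in the Consortium for Functional Glycomics database, and only arrays with an available protein sequence were kept. Glycan names were put into IUPAC-condensed notation, and columns mapping to the same glycan were averaged. The binding signal is a within-array Z-score, averaged across arrays of one protein sequence run at different concentrations or buffers and across linkers. A negative Z-score can be read as non-binding.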
# Neu5Ac(a2-8)Neu5Ac = target: Neu5Ac(a2-8)Neu5Ac
# How it was run: as §1
# [2] = target: Neu5Ac(a2-8)Neu5Ac(a2-3)Gal(b1-3)GalNAc(b1-4)[Neu5Ac(a2-3)]Gal(b1-4)Glc
# How it was run: as §1
# [3] = target: Neu5Ac(a2-8)Neu5Ac(a2-3)Gal(b1-3)GalNAc(b1-4)[Neu5Ac(a2-8)Neu5Ac(a2-3)]Gal(b1-4)Glc
# How it was run: as §1
# [4] = target: Neu5Ac(a2-8)Neu5Ac(a2-3)Gal(b1-4)Glc
# How it was run: as §1
# [5] = target: Neu5Ac(a2-8)Neu5Ac(a2-3)Gal(b1-4)GlcNAc
# How it was run: as §1
# [6] = target: Neu5Ac(a2-8)Neu5Ac(a2-3)[Gal(b1-3)GalNAc(b1-4)]Gal(b1-4)Glc
# How it was run: as §1
# [7] = target: Neu5Ac(a2-8)Neu5Ac(a2-3)[GalNAc(b1-4)]Gal(b1-4)Glc
# How it was run: as §1
# [8] = target: Neu5Ac(a2-8)Neu5Ac(a2-8)Neu5Ac
# How it was run: as §1
# [9] = target: Neu5Ac(a2-8)Neu5Ac(a2-8)Neu5Ac(a2-3)Gal(b1-4)Glc
# How it was run: as §1
# [10] = target: Neu5Ac(a2-8)Neu5Ac(a2-8)Neu5Ac(a2-3)[Gal(b1-3)GalNAc(b1-4)]Gal(b1-4)Glc
# How it was run: as §1
# [11] = target: Neu5Ac(a2-8)Neu5Ac(a2-8)Neu5Ac(a2-3)[GalNAc(b1-4)]Gal(b1-4)Glc
# How it was run: as §1
# [12] = target: Neu5Ac(a2-8)Neu5Ac(a2-8)Neu5Ac(a2-8)Neu5Ac(a2-3)[GalNAc(b1-4)]Gal(b1-4)Glc
# How it was run: as §1
# [13] = target: Neu5Ac(a2-8)Neu5Gc(a2-3)Gal(b1-4)GlcNAc
# How it was run: as §1
# [14] = target: Neu5Ac(b2-6)Gal(b1-4)GlcNAc
# How it was run: as §1
# Neu5Ac(b2-6)GalNAc = target: Neu5Ac(b2-6)GalNAc
# How it was run: as §1
# [15] = target: Neu5Ac9Ac(a2-3)Gal(b1-3)GlcNAc
# How it was run: as §1
# [16] = target: Neu5Ac9Ac(a2-3)Gal(b1-4)GlcNAc
# How it was run: as §1
# [17] = target: Neu5Ac9Ac(a2-6)Gal(b1-4)GlcNAc
# How it was run: as §1
# [18] = target: Neu5Gc(a2-3)Gal(b1-3)GlcNAc
# How it was run: as §1
# [19] = target: Neu5Gc(a2-3)Gal(b1-3)[Fuc(a1-4)]GlcNAc
# How it was run: as §1
# Neu5Gc(a2-3)Gal(b1-4)Glc = target: Neu5Gc(a2-3)Gal(b1-4)Glc
# How it was run: as §1
# [20] = target: Neu5Gc(a2-3)Gal(b1-4)GlcNAc
# How it was run: as §1
# [21] = target: Neu5Gc(a2-3)Gal(b1-4)GlcNAc(b1-3)Gal(b1-4)GlcNAc(b1-2)Man(a1-3)[Neu5Gc(a2-3)Gal(b1-4)GlcNAc(b1-3)Gal(b1-4)GlcNAc(b1-2)Man(a1-6)]Man(b1-4)GlcNAc(b1-4)GlcNAc
# How it was run: as §1
# [22] = target: Neu5Gc(a2-3)Gal(b1-4)[Fuc(a1-3)]GlcNAc
# How it was run: as §1
# [23] = target: Neu5Gc(a2-6)Gal(b1-4)GlcNAc
# How it was run: as §1
# Neu5Gc(a2-6)GalNAc = target: Neu5Gc(a2-6)GalNAc
# How it was run: as §1
# [24] = target: Neu5Gc(a2-8)Neu5Ac(a2-3)Gal(b1-4)GlcNAc
# How it was run: as §1
# [25] = target: Neu5Gc(a2-8)Neu5Gc(a2-3)Gal(b1-4)GlcNAc
# How it was run: as §1
# [26] = target: Neu5Gc(a2-8)Neu5Gc(a2-3)Gal(b1-4)GlcNAc(b1-3)Gal(b1-4)GlcNAc
# How it was run: as §1
# [27] = target: Neu5Gc(a2-8)Neu5Gc(a2-6)Gal(b1-4)GlcNAc
# How it was run: as §1
# [28] = target: Neu5Gc(b2-6)Gal(b1-4)GlcNAc
# How it was run: as §1
binder,measurement,setting,value
B1,glycan array binding signal (z-score),[1],0.064
same,glycan array binding signal (z-score),Neu5Ac(a2-8)Neu5Ac,0.603
same,glycan array binding signal (z-score),[2],-0.67
same,glycan array binding signal (z-score),[3],-0.512
same,glycan array binding signal (z-score),[4],-0.27
same,glycan array binding signal (z-score),[5],-0.447
same,glycan array binding signal (z-score),[6],-0.389
same,glycan array binding signal (z-score),[7],0.19
same,glycan array binding signal (z-score),[8],-0.412
same,glycan array binding signal (z-score),[9],0.117
same,glycan array binding signal (z-score),[10],1.09
same,glycan array binding signal (z-score),[11],-0.456
same,glycan array binding signal (z-score),[12],0.263
same,glycan array binding signal (z-score),[13],1.29
same,glycan array binding signal (z-score),[14],0.013
same,glycan array binding signal (z-score),Neu5Ac(b2-6)GalNAc,0.549
same,glycan array binding signal (z-score),[15],-0.653
same,glycan array binding signal (z-score),[16],0.166
same,glycan array binding signal (z-score),[17],-0.27
same,glycan array binding signal (z-score),[18],-0.666
same,glycan array binding signal (z-score),[19],-0.742
same,glycan array binding signal (z-score),Neu5Gc(a2-3)Gal(b1-4)Glc,0.407
same,glycan array binding signal (z-score),[20],-0.081
same,glycan array binding signal (z-score),[21],-0.078
same,glycan array binding signal (z-score),[22],-0.7
same,glycan array binding signal (z-score),[23],-0.424
same,glycan array binding signal (z-score),Neu5Gc(a2-6)GalNAc,0.187
same,glycan array binding signal (z-score),[24],-0.076
same,glycan array binding signal (z-score),[25],-0.726
same,glycan array binding signal (z-score),[26],-1.02
same,glycan array binding signal (z-score),[27],-0.292
same,glycan array binding signal (z-score),[28],-0.136

# An excerpt of these results, with tabs:
binder	measurement	setting	value
B1	glycan array binding signal (z-score)	[19]	-0.742
same	glycan array binding signal (z-score)	Neu5Gc(a2-3)Gal(b1-4)Glc	0.407
